In PMC12623996:
Like-named read-outs stand apart in the source and are kept apart here. These are yes or no findings as the source states them, for the method shown. Binding seen in cells or lysates may run through a third protein. Some results given as binding are weak or reduced against the parent protein; the word gives no strength. For some assays here: Where a sequence is shown, tags or fusion partners need not be part of it. Each block holds one molecule with its values, some of them ahead of it.

The chains behind the UniProt entries cited, without tags or fusion partners. Residues count along the entry.
UniProt P02545, residues 1-646: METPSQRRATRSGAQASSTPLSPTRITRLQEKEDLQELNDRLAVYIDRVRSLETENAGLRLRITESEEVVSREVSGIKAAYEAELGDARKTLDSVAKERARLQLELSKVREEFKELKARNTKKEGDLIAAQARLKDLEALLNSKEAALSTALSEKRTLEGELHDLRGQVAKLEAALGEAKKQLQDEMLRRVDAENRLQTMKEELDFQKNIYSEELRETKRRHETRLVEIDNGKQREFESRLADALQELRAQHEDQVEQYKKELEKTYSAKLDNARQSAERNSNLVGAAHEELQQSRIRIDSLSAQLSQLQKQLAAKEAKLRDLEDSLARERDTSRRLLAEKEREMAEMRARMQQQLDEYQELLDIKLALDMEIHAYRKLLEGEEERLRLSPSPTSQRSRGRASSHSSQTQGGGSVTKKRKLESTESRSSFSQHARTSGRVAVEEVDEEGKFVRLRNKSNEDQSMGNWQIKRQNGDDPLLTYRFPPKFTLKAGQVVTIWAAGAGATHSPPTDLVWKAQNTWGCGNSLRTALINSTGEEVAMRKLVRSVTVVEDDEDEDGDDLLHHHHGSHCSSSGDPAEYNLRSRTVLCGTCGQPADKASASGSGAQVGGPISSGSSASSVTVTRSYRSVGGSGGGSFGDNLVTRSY

Columns and labels:
[1] = target: T1, Succinate-coenzyme A (CoA) ligase GDP-forming subunit beta (SUCLG2) (human (endogenous in LN229)) (UniProt Q96I99); test: co-IP; endogenous proteins; protein A/G beads coated with antibody (anti-SUCLG2 A8976, anti-LMNA ab226198) or control IgG, incubated with cell lysate overnight at 4 °C; western blot
T1 sequence: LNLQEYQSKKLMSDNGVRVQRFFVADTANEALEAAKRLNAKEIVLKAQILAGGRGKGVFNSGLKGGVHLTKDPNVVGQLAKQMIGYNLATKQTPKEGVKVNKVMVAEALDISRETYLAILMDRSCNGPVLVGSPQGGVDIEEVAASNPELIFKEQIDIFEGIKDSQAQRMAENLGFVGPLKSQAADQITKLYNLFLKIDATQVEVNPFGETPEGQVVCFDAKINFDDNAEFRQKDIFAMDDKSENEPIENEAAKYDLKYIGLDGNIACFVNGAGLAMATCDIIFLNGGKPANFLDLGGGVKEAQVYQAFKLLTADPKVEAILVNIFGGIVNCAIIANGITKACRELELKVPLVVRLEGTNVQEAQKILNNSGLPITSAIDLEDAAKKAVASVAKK

[2] = target: rLMNA-FLAG WT (UniProt P02545); test: co-IP; LMNA-depleted LN229 and U251 cells transiently transfected with HA-SUCLG2 and rLMNA-FLAG WT or K470R; IP with anti-FLAG antibody, western blot; interaction enhanced after treatment with NAM and TSA (Fig. S3C)
[3] = target: LMNA K470 acetylated (human (endogenous in LN229 and U251)) (UniProt P02545); test: pull-down; in vitro FLAG-SUCLG2 pull-down with equal amounts of K470-acetylated LMNA and LMNA WT immunoprecipitated and purified from LN229 and U251 cells; cells treated with TSA (10 mM) and NAM (10 mM) for 16 h
[4] = target: lamin A (LMNA) (human (endogenous in LN229 and U251)) (UniProt P02545); test: as above
[5] = target: T1, Succinate-coenzyme A (CoA) ligase GDP-forming subunit beta (SUCLG2) (human (endogenous in LN229)); test: co-IP; endogenous proteins; protein A/G beads coated with antibody (anti-SUCLG2 A8976, anti-LMNA ab226198) or control IgG, incubated with cell lysate overnight at 4 °C; western blot; remark: listed apart in the source

- binding [1]: binds
Molecule: lamin A (LMNA) (from UniProt P02545 1-646)

- binding [2]: binds
B1: HA-SUCLG2 (protein, UniProt Q96I99 38-432)
chain: T1 sequence

- binding [3]: binds
- binding [4]: binds
B2: FLAG-SUCLG2 (protein, UniProt Q96I99 38-432)
chain: T1 sequence

- binding [5]: binds
B3: dihydrolipoamide acetyltransferase (DLAT) (protein, UniProt P10515 87-647)
chain: SLPPHQKVPLPSLSPTMQAGTIARWEKKEGDKINEGDLIAEVETDKATVGFESLEECYMAKILVAEGTRDVPIGAIICITVGKPEDIEAFKNYTLDSSAAPTPQAAPAPTPAATASPPTPSAQAPGSSYPPHMQVLLPALSPTMTMGTVQRWEKKVGEKLSEGDLLAEIETDKATIGFEVQEEGYLAKILVPEGTRDVPLGTPLCIIVEKEADISAFADYRPTEVTDLKPQVPPPTPPPVAAVPPTPQPLAPTPSAPCPATPAGPKGRVFVSPLAKKLAVEKGIDLTQVKGTGPDGRITKKDIDSFVPSKVAPAPAAVVPPTGPGMAPVPTGVFTDIPISNIRRVIAQRLMQSKQTIPHYYLSIDVNMGEVLLVRKELNKILEGRSKISVNDFIIKASALACLKVPEANSSWMDTVIRQNHVVDVSVAVSTPAGLITPIVFNAHIKGVETIANDVVSLATKAREGKLQPHEFQGGTFTISNLGMFGIKNFSAIINPPQACILAIGASEDKLVPADNEKGFDVASMMSVTLSCDHRVVDGAVGAQWLAEFRKYLEKPITMLL
